# Results deposited as PubChem BioAssay AID1508597 (Cure First, 2020).
# Aim: 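Knock-downs altering ovarian cancer cell survival with or without PARP inhibitor rucaparib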 (primary screen)
# Cells: human ovarian carcinoma lines grown from tumours: OCI-P5x (papillary serous) and OCI-C5x (clear cell)
# Knock-down reagent: siRNA pool against human genes, 1.25 pmol siRNA per well
# Duration: 72 h or 96 h, depending on the cell culture
# Conditions: rucaparib 20 µM (about IC30) or vehicle, present until read-out
# Rucaparib or vehicle: Rucaparib
# Cell line: OCI-C5x (clear cell)
# Read-out: 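Luminescent ATP-based viability assay read 72 or 96 h after transfection, depending on culture, given as normalised percent viability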
# Scale: viability, normalised: higher = more viable cells remaining
# Active means: 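Active when normalised viability falls below 80 percent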
# Calls: active = viability under 80%; inactive = viability 80% or more
# This is an unselected part of the about 2,100 reagents, under one of the conditions tested. 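Calls flag viability under 80% in either arm, not effects specific to rucaparib; the reference for percent is not stated.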 Entries without a mark were called inactive. Reagents against one gene are numbered here. A reagent listed more than once was tested more than once; the source does not tell the runs apart. Not given: the 100% reference.
Target gene,reagent,technical replicate,"viability, normalised (%)"
UBR2 (ubiquitin protein ligase E3 component n-recognin 2),1,1,40.4 (active)
UBR2 (ubiquitin protein ligase E3 component n-recognin 2),1,2,55 (active)
UBR2 (ubiquitin protein ligase E3 component n-recognin 2),1,3,47.5 (active)
DHX8 (DEAH-box helicase 8),1,1,31.4 (active)
DHX8 (DEAH-box helicase 8),1,2,23.6 (active)
DHX8 (DEAH-box helicase 8),1,3,19.6 (active)
MBD3 (methyl-CpG binding domain protein 3),1,1,36.5 (active)
MBD3 (methyl-CpG binding domain protein 3),1,2,18.8 (active)
MBD3 (methyl-CpG binding domain protein 3),1,3,29.9 (active)
IP6K3 (inositol hexakisphosphate kinase 3),1,1,65.1 (active)
IP6K3 (inositol hexakisphosphate kinase 3),1,2,53.8 (active)
IP6K3 (inositol hexakisphosphate kinase 3),1,3,72.2 (active)
IP6K3 (inositol hexakisphosphate kinase 3),2,1,69.8 (active)
IP6K3 (inositol hexakisphosphate kinase 3),2,2,73.6 (active)
IP6K3 (inositol hexakisphosphate kinase 3),2,3,81.8
BUB1B (BUB1 mitotic checkpoint serine/threonine kinase B),1,1,48 (active)
BUB1B (BUB1 mitotic checkpoint serine/threonine kinase B),1,1,32.2 (active)
BUB1B (BUB1 mitotic checkpoint serine/threonine kinase B),1,1,74.1 (active)
BUB1B (BUB1 mitotic checkpoint serine/threonine kinase B),1,2,49.4 (active)
BUB1B (BUB1 mitotic checkpoint serine/threonine kinase B),1,2,35.4 (active)
BUB1B (BUB1 mitotic checkpoint serine/threonine kinase B),1,2,78.7 (active)
BUB1B (BUB1 mitotic checkpoint serine/threonine kinase B),1,3,36.4 (active)
BUB1B (BUB1 mitotic checkpoint serine/threonine kinase B),1,3,91.5
BUB1B (BUB1 mitotic checkpoint serine/threonine kinase B),1,3,72 (active)
UBR5 (ubiquitin protein ligase E3 component n-recognin 5),1,1,50.7 (active)
UBR5 (ubiquitin protein ligase E3 component n-recognin 5),1,2,49.8 (active)
UBR5 (ubiquitin protein ligase E3 component n-recognin 5),1,3,52.4 (active)
BNIP3 (BCL2 interacting protein 3),1,1,65.9 (active)
BNIP3 (BCL2 interacting protein 3),1,2,53.3 (active)
BNIP3 (BCL2 interacting protein 3),1,3,42.9 (active)
PTGR1 (prostaglandin reductase 1),1,1,49.1 (active)
PTGR1 (prostaglandin reductase 1),1,2,44.9 (active)
PTGR1 (prostaglandin reductase 1),1,3,43 (active)
FMN2 (formin 2),1,1,43.2 (active)
FMN2 (formin 2),1,2,39.2 (active)
FMN2 (formin 2),1,3,42.3 (active)
EID2 (EP300 interacting inhibitor of differentiation 2),1,1,59.9 (active)
EID2 (EP300 interacting inhibitor of differentiation 2),1,2,62 (active)
EID2 (EP300 interacting inhibitor of differentiation 2),1,3,55.1 (active)
PI4KA (phosphatidylinositol 4-kinase alpha),1,1,55.6 (active)
PI4KA (phosphatidylinositol 4-kinase alpha),1,2,59 (active)
PI4KA (phosphatidylinositol 4-kinase alpha),1,3,65.3 (active)
TTF1 (transcription termination factor 1),1,1,26.7 (active)
TTF1 (transcription termination factor 1),1,2,36.2 (active)
TTF1 (transcription termination factor 1),1,3,20.8 (active)
TXNDC9 (thioredoxin domain containing 9),1,1,64.1 (active)
TXNDC9 (thioredoxin domain containing 9),1,2,47.6 (active)
TXNDC9 (thioredoxin domain containing 9),1,3,64.8 (active)
SPEG (striated muscle enriched protein kinase),1,1,41.3 (active)
SPEG (striated muscle enriched protein kinase),1,1,78.8 (active)
SPEG (striated muscle enriched protein kinase),1,2,61.9 (active)
SPEG (striated muscle enriched protein kinase),1,2,53.8 (active)
SPEG (striated muscle enriched protein kinase),1,3,60.8 (active)
SPEG (striated muscle enriched protein kinase),1,3,60.1 (active)
PRMT3 (protein arginine methyltransferase 3),1,1,55.1 (active)
PRMT3 (protein arginine methyltransferase 3),1,2,44 (active)
PRMT3 (protein arginine methyltransferase 3),1,3,39.6 (active)

Targets above whose gene name begins with P or p:
Target gene,reagent,technical replicate,"viability, normalised (%)"
PTGR1 (prostaglandin reductase 1),1,1,49.1 (active)
PTGR1 (prostaglandin reductase 1),1,2,44.9 (active)
PTGR1 (prostaglandin reductase 1),1,3,43 (active)
PI4KA (phosphatidylinositol 4-kinase alpha),1,1,55.6 (active)
PI4KA (phosphatidylinositol 4-kinase alpha),1,2,59 (active)
PI4KA (phosphatidylinositol 4-kinase alpha),1,3,65.3 (active)
PRMT3 (protein arginine methyltransferase 3),1,1,55.1 (active)
PRMT3 (protein arginine methyltransferase 3),1,2,44 (active)
PRMT3 (protein arginine methyltransferase 3),1,3,39.6 (active)
